Experimental data: the supplement of paper PMC4807443
Structures can show the parent of a compound that is named as a salt. The list shows a part of the results. The numbers are fractions of the control, whatever unit the source prints. Most values lie at the level of the controls, where differences are scatter.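 MIN6 is a mouse insulinoma beta-cell line that stably carries a lentiviral reporter in which the Pdx1 and Ins1 promoters each drive a nucleus-targeted fluorescent protein; cells were counted by automated imaging with a Hoechst nuclear stain. In the screen, a drug was a possible hit when its Ins1 promoter readout lay beyond two median absolute deviations from the DMSO controls while Pdx1 activity stayed near normal.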

System: MIN6
Test: % Pdx1+ Ins1-low (RFP-only, immature) cells relative to DMSO control (fold of DMSO control); higher = more immature Pdx1+/Ins1-low cells
Details: 8.5 µM; 48 h; glucose 5 mM

Going from `CC(N/C(=N\C#N)Nc1ccncc1)C(C)(C)C` (configuration not stated) [Pinacidil] to `CNNCc1ccc(C(=O)NC(C)C)cc1` [Procarbazine hydrochloride], the “% Pdx1+ Ins1-low” value falls from 0.996 to 0.845.

First: CCN(CC)CCOC(=O)C1(C2CCCCC2)CCCCC1 [Dicyclomine hydrochloride]
Second: CCN(CC)CCOC(=O)C1(c2ccc([N+](=O)[O-])cc2)CCCC1 [Nitrocaramiphen hydrochloride]
The “% Pdx1+ Ins1-low” value of the first is higher: 1.04 for the first, 0.964 for the second.

First: Cc1[nH]ccc2c1[nH]c1cc(=O)ccc12 [Harmol hydrochloride monohydrate]
Second: COc1c2occc2cc2ccc(=O)oc12 [Methoxy-8-psoralen]
The “% Pdx1+ Ins1-low” value of the first is higher: 1.03 for the first, 0.622 for the second.

First: COc1cc(C(=O)OCCCN2CCCN(CCCOC(=O)c3cc(OC)c(OC)c(OC)c3)CC2)cc(OC)c1OC [Dilazep dihydrochloride]
Second: COC(=O)[C@H]1[C@H]2C[C@@H]3c4[nH]c5cc(OC)ccc5c4CCN3C[C@H]2C[C@@H](OC(=O)c2cc(OC)c(OC)c(OC)c2)[C@@H]1OC [Reserpine]
The “% Pdx1+ Ins1-low” value of the first is higher: 1.29 for the first, 1.08 for the second.

Going from `O=C(O)Cc1ccc(-c2ccccc2)cc1` [Felbinac] to `O=C(O)Cc1ccccc1Nc1c(Cl)cccc1Cl` [Diclofenac sodium], the “% Pdx1+ Ins1-low” value rises from 0.67 to 1.27.

First: C[C@@H]1C[C@H]2[C@@H]3C[C@H](F)C4=CC(=O)C=C[C@]4(C)[C@@]3(F)[C@@H](O)C[C@]2(C)[C@@]1(O)C(=O)CO [Flumethasone]
Second: CC(=O)OCC(=O)[C@@]1(O)CC[C@H]2[C@@H]3CCC4=CC(=O)C=C[C@]4(C)[C@@]3(F)[C@@H](O)C[C@@]21C [Isoflupredone acetate]
The “% Pdx1+ Ins1-low” value of the first is higher: 1.51 for the first, 0.887 for the second.

First: CN1CCN(C2=Nc3ccccc3Oc3ccc(Cl)cc32)CC1 [Loxapine succinate]
Second: CN1CCN(C(c2ccccc2)c2ccc(Cl)cc2)CC1 (configuration not stated) [(1-[(4-Chlorophenyl)phenyl-methyl]-4-methylpiperazine)]
The “% Pdx1+ Ins1-low” value of the first is lower: 0.674 for the first, 0.675 for the second.

First: NCc1ccccc1CC(=O)N[C@@H]1C(=O)N2C(C(=O)O)=C(CSc3nnnn3CC(=O)O)CS[C@H]12 [Ceforanide]
Second: CO[C@@]1(NC(=O)C(C(=O)O)c2ccc(O)cc2)C(=O)N2C(C(=O)O)=C(CSc3nnnn3C)CO[C@@H]21 (some centres not stated) [Moxalactam disodium salt]
The “% Pdx1+ Ins1-low” value of the first is lower: 0.632 for the first, 0.633 for the second.

Going from `N=C(NCCCCCCNC(=N)NC(=N)Nc1ccc(Cl)cc1)NC(=N)Nc1ccc(Cl)cc1` [Chlorhexidine] to `Clc1ccc(CCC(Cn2ccnc2)Sc2c(Cl)cccc2Cl)cc1` (configuration not stated) [Butoconazole nitrate], the “% Pdx1+ Ins1-low” value rises from 0.755 to 1.2.

First: N#Cc1ccc(C(c2ccc(C#N)cc2)n2cncn2)cc1 [Letrozole]
Second: Nc1ccc(S(=O)(=O)Nc2ccc(Cl)nn2)cc1 [Sulfachloropyridazine]
The “% Pdx1+ Ins1-low” value of the first is higher: 1.33 for the first, 1.02 for the second.

Going from `C[N+]1(C)CCC(OC(=O)C(O)(c2ccccc2)C2CCCC2)C1` (configuration not stated) [Glycopyrrolate] to `C[N+]1(C)CCC(=C(c2ccccc2)c2ccccc2)CC1` [Diphemanil methylsulfate], the “% Pdx1+ Ins1-low” value falls from 0.869 to 0.635.

First: CN(C)CCCOc1nn(Cc2ccccc2)c2ccccc12 [Benzydamine hydrochloride]
Second: CN(C)CCC=C1c2ccccc2C=Cc2ccccc21 [Cyclobenzaprine hydrochloride]
The “% Pdx1+ Ins1-low” value of the first is lower: 0.912 for the first, 1.04 for the second.

Compared with `COc1cc2nc(N3CCN(C(=O)C4CCCO4)CC3)nc(N)c2cc1OC` (configuration not stated) [Terazosin hydrochloride], `COc1cc2c(cc1OC)-c1cc3ccc(OC)c(OC)c3c[n+]1CC2` [Palmatine chloride] is lower in “% Pdx1+ Ins1-low” value: 1.22 for the first, 0.924 for the second.

First: C[n+]1cccc(C(=O)[O-])c1 [Trigonelline]
Second: CS(=O)(=O)c1ccc([C@@H](O)[C@@H](CO)NC(=O)C(Cl)Cl)cc1 [Thiamphenicol]
The “% Pdx1+ Ins1-low” value of the first is higher: 1.12 for the first, 0.815 for the second.

Going from `NS(=O)(=O)c1cc2c(cc1Cl)NCNS2(=O)=O` [Hydrochlorothiazide] to `NS(=O)(=O)c1cc2c(cc1Cl)N=C(CSCc1ccccc1)NS2(=O)=O` [Benzthiazide], the “% Pdx1+ Ins1-low” value rises from 0.692 to 1.29.

First: C[C@@H]1C(=O)O[C@H]2C[C@@]34[C@H]5C[C@@H](C(C)(C)C)[C@]36[C@@H](OC(=O)[C@@H]6O)O[C@@]4(C(=O)O5)[C@]21O [Ginkgolide A]
Second: CCC(=O)[C@@]1(C)[C@H](C)C[C@H]2[C@@H]3CCC4=CC(=O)C=C[C@]4(C)[C@H]3[C@@H](O)C[C@@]21C [Rimexolone]
The “% Pdx1+ Ins1-low” value of the first is higher: 1.3 for the first, 1.04 for the second.

Compared with `CC(=O)Oc1cc(C(C)C)c(OCCN(C)C)cc1C` [Moxisylyte hydrochoride], `CC(=O)Oc1cc(C(F)(F)F)ccc1C(=O)O` [Triflusal] is higher in “% Pdx1+ Ins1-low” value: 0.664 for the first, 0.688 for the second.

Going from `CC[C@]12CCCN3CCc4c(n(c5ccccc45)C(=O)C1)[C@@H]32` [Eburnamonine (-)] to `CCOC(=O)Nc1ccc2c(c1)N(C(=O)CCN1CCOCC1)c1ccccc1S2` [Moricizine hydrochloride], the “% Pdx1+ Ins1-low” value rises from 0.598 to 0.829.

Compared with `CNC(=C[N+](=O)[O-])NCCSCc1csc(CN(C)C)n1` [Nizatidine], `CNC(=C[N+](=O)[O-])NCCSCc1ccc(CN(C)C)o1` [Ranitidine hydrochloride] is lower in “% Pdx1+ Ins1-low” value: 1.15 for the first, 0.783 for the second.

First: CS(=O)(=O)Nc1ccc([N+](=O)[O-])cc1Oc1ccccc1 [Nimesulide]
Second: Nc1ccc(S(=O)(=O)Nc2ncccn2)cc1 [Sulfadiazine]
The “% Pdx1+ Ins1-low” value of the first is higher: 0.955 for the first, 0.946 for the second.

First: COc1cc(C)nc(-n2nc(C)cc2OC)n1 [Epirizole]
Second: CCN(CC)CCCC(C)Nc1c2ccc(Cl)cc2nc2ccc(OC)cc12 (configuration not stated) [Quinacrine dihydrochloride dihydrate]
The “% Pdx1+ Ins1-low” value of the first is lower: 0.708 for the first, 1.06 for the second.

Compared with `CCn1cc(C(=O)O)c(=O)c2cc(F)c(N3CCNC(C)C3)c(F)c21` (configuration not stated) [Lomefloxacin hydrochloride], `Nc1ccc(O)c(C(=O)O)c1` [Mesalamine] is lower in “% Pdx1+ Ins1-low” value: 1.13 for the first, 0.605 for the second.

Going from `C[C@]12C=CC(=O)C=C1CC[C@@H]1[C@@H]2C(=O)C[C@@]2(C)[C@H]1CC[C@]2(O)C(=O)CO` [Prednisone] to `C[C@]12C=CC(=O)C=C1CC[C@@H]1[C@@H]2[C@@H](O)C[C@@]2(C)[C@H]1CC[C@]2(O)C(=O)CO` [Prednisolone], the “% Pdx1+ Ins1-low” value falls from 1.24 to 0.975.

Going from `CC(C)(O/N=C(\C(=O)N[C@@H]1C(=O)N2C(C(=O)[O-])=C(C[n+]3ccccc3)CS[C@H]12)c1csc(N)n1)C(=O)O` [Ceftazidime pentahydrate] to `C[C@H]1[C@H](NC(=O)/C(=N\OC(C)(C)C(=O)O)c2csc(N)n2)C(=O)N1S(=O)(=O)O` [Aztreonam], the “% Pdx1+ Ins1-low” value falls from 0.954 to 0.794.

Going from `Cc1ccc(/C(=C\CN2CCCC2)c2ccccn2)cc1` [Triprolidine hydrochloride] to `Clc1ccccc1CN1CCc2sccc2C1` [Ticlopidine hydrochloride], the “% Pdx1+ Ins1-low” value rises from 0.653 to 1.33.

Compared with `CNCCC=C1c2ccccc2CCc2ccccc21` [Nortriptyline hydrochloride], `CN(C)CCCN1c2ccccc2CCc2ccc(Cl)cc21` [Clomipramine hydrochloride] is higher in “% Pdx1+ Ins1-low” value: 0.681 for the first, 0.927 for the second.

Going from `CN(N=O)C(=O)N[C@@H](C=O)[C@@H](O)[C@H](O)[C@H](O)CO` [Streptozotocin] to `NCCCC[C@H](N[C@@H](CCc1ccccc1)C(=O)O)C(=O)N1CCC[C@H]1C(=O)O` [Lisinopril], the “% Pdx1+ Ins1-low” value rises from 0.744 to 0.855.

Compared with `CCc1cc(C(N)=S)ccn1` [Ethionamide], `CC(C)Cc1ccc([C@H](C)C(=O)O)cc1` [S-(+)-ibuprofen] is lower in “% Pdx1+ Ins1-low” value: 1.24 for the first, 0.629 for the second.

First: O=C1C=CC(=O)c2c1ccc1c2ccc2ccccc21 [Chrysene-1,4-quinone]
Second: O=C1C(CC[S+]([O-])c2ccccc2)C(=O)N(c2ccccc2)N1c1ccccc1 (configuration not stated) [Sulfinpyrazone]
The “% Pdx1+ Ins1-low” value of the first is higher: 1.13 for the first, 0.829 for the second.

First: O=C(N/N=C/c1ccc([N+](=O)[O-])o1)c1ccc(O)cc1 [Nifuroxazide]
Second: Cc1cc(NC(=O)C2=C(O)c3ccccc3S(=O)(=O)N2C)no1 [Isoxicam]
The “% Pdx1+ Ins1-low” value of the first is lower: 1.19 for the first, 1.44 for the second.

Compared with `CC(=O)N1CCN(c2ccc(OCC3COC(Cn4ccnc4)(c4ccc(Cl)cc4Cl)O3)cc2)CC1` (configuration not stated) [Ketoconazole], `CN1CCN(CCCN2c3ccccc3Sc3ccc(S(=O)(=O)N(C)C)cc32)CC1` [Thioproperazine dimesylate] is lower in “% Pdx1+ Ins1-low” value: 1.03 for the first, 0.887 for the second.

Compared with `CC(C)NCC(O)c1ccc(NS(C)(=O)=O)cc1` (configuration not stated) [Sotalol hydrochloride], `COC(=O)C1=C(C)NC(C)=C(C(=O)OC)C1c1ccccc1[N+](=O)[O-]` [Nifedipine] is lower in “% Pdx1+ Ins1-low” value: 1.35 for the first, 0.509 for the second.

Going from `C#C[C@]1(O)CC[C@H]2[C@@H]3CCc4cc(OC)ccc4[C@H]3CC[C@@]21C` [Ethynylestradiol 3-methyl ether] to `C#C[C@]1(O)CC[C@H]2[C@@H]3CCC4=CC(=O)CC[C@@H]4[C@H]3CC[C@@]21C` [Norethindrone], the “% Pdx1+ Ins1-low” value falls from 1 to 0.86.

First: CCCCCCCCCCCCCCCC[N+](C)(C)CCN(Cc1ccc(OC)cc1)c1ncccn1 [Thonzonium bromide]
Second: Cc1cc(C(C)(C)CC(C)(C)C)ccc1OCCOCC[N+](C)(C)Cc1ccccc1 [Methyl benzethonium chloride]
The “% Pdx1+ Ins1-low” value of the first is higher: 1.11 for the first, 0.967 for the second.

First: CO[C@@]1(NC(=O)C2SC(=C(C(N)=O)C(=O)O)S2)C(=O)N2C(C(=O)O)=C(CSc3nnnn3C)CS[C@@H]21 (some centres not stated) [Cefotetan]
Second: CC(=O)O[C@]1(C(C)=O)CC[C@H]2[C@@H]3C=C(C)C4=CC(=O)CC[C@@H]4[C@H]3CC[C@@]21C [Nomegestrol acetate]
The “% Pdx1+ Ins1-low” value of the first is lower: 0.667 for the first, 1.06 for the second.

`C#C[C@]1(OC(C)=O)CC[C@H]2[C@@H]3CCC4=C[C@@H](OC(C)=O)CC[C@@H]4[C@H]3CC[C@@]21C` [Ethynodiol diacetate] and `CC(C)(C)NC[C@H](O)COc1nsnc1N1CCOCC1` [Timolol maleate salt] are the same in “% Pdx1+ Ins1-low” value: 1 for the first, 1 for the second.
